Results published in patent US20220347236A1.

Tests used:
[1] = biological target: FcγRI recombinant protein; test: BLI response at 4 uM on immobilised FcγRI, bar chart
[2] = biological target: FcγRIIA recombinant protein; test: BLI response at 4 uM on immobilised FcγRIIA, bar chart
[3] = biological target: FcγRIIB recombinant protein; test: BLI response at 4 uM on immobilised FcγRIIB, bar chart
[4] = biological target: FcγRIIIA recombinant protein; test: BLI response at 4 uM on immobilised FcγRIIIA, bar chart
[5] = biological target: FcγRIIIB recombinant protein; test: BLI response at 4 uM on immobilised FcγRIIIB, bar chart
[6] = biological target: FcγRI recombinant protein; test: BLI (Octet RED384), receptor immobilised on AR2G biosensor, IgETRAP at various concentrations
[7] = biological target: FcγRIIA recombinant protein; test: as above
[8] = biological target: FcγRIIB recombinant protein; test: as above
[9] = biological target: FcγRIIIA recombinant protein; test: as above
[10] = biological target: FcγRIIIB recombinant protein; test: as above
[11] = biological target: FcγRI recombinant protein; test: BLI (Octet RED384), FcγRI immobilised on AR2G biosensor, IgETRAP in solution at 0.25-4 µM
[12] = biological target: FcγRIIA recombinant protein; test: BLI (Octet RED384), FcγRIIA immobilised on AR2G biosensor, IgETRAP in solution at 0.25-4 µM
[13] = biological target: FcγRIIB recombinant protein; test: BLI (Octet RED384), FcγRIIB immobilised on AR2G biosensor, IgETRAP in solution at 0.25-4 µM
[14] = biological target: FcγRIIIA recombinant protein; test: BLI (Octet RED384), FcγRIIIA immobilised on AR2G biosensor, IgETRAP in solution at 0.25-4 µM
[15] = biological target: FcγRIIIB recombinant protein; test: BLI (Octet RED384), FcγRIIIB immobilised on AR2G biosensor (sheet label FcγRIIIB), IgETRAP in solution at 0.25-4 µM

- binding [1]: no binding (tested: 4 uM)
- binding [2]: no binding (tested: 4 uM)
- binding [3]: no binding (tested: 4 uM)
- binding [4]: no binding (tested: 4 uM)
- binding [5]: no binding (tested: 4 uM)
- binding [6]: no binding
- binding [7]: no binding
- binding [8]: no binding
- binding [9]: no binding
- binding [10]: no binding
- binding [11]: no binding (tested: 4 µM)
- binding [12]: no binding (tested: 4 µM)
- binding [13]: no binding (tested: 4 µM)
- binding [14]: no binding (tested: 4 µM)
- binding [15]: no binding (tested: 4 µM)
B1: FcεRIαECD-Fc2ST (Fc fusion)
chain: VPQKPKVSLNPPWNRIFKGENVTLTCNGNNFFEVSSTKWFHNGSLSEETNSSLNIVNAKFEDSGEYKCQHQQVNESEPVYLEVFSDWLLLQASAEVVMEGQPLFLRCHGWRNWDVYKVIYYKDGEALKYWYENHNISITNATVEDSGTYYCTGKVWQLDYESEPLNITVIKAPREKYWLQRNTGRGGEEKKGSKEKEEQEERETKTPECPSHTQPLGVFLFPPKPKDTLMISRTPEVTCVVVDVSQEDPEVQFNWYVDGVEVHNAKTKPREEQFNSTYRVVSVLTVLHQDWLNGKEYKCKVSNKGLPSSIEKTISKAKGQPREPQVYTLPPSQEEMTKNQVSLTCLVKGFYPSDIAVEWESNGQPENNYKTTPPVLDSDGSFFLYSRLTVDKSRWQEGNVFSCSVMHEALHNHYTQKSLSLSLGK
modifications: sialic acid added (α-2,6-sialic acid transferase co-expressed)

No constants are given. Whether binding was seen depends on the method and setting.
